For 42 molecules, AC50 results are on record in PubChem BioAssay AID493014 (National Center for Advancing Translational Sciences (NCATS), 2011).

This is one part of the list. These are further read-outs of the screen, such as a control signal, another cell line or another target. No call is given for them. Most of these compounds were active or inconclusive in the main read-out, so they are no random draw. Words in brackets tell the shape of the fitted curve; partial curves, single points and poor fits give uncertain potencies.

The assay in a line: qHTS Assay to Find Inhibitors of Chronic Active B-Cell Receptor Signaling. As to conditions: ABC-DLBCL IkBa-CBG/CBR reporter, luminescence ratio (green luciferase fused to IkBa over red control in TMD8 lymphoma cells), 4 h. The essentials: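 Compounds up to 46 uM were incubated four hours with TMD8 cells whose green CBG68 luciferase is fused to IkappaBalpha; red CBR luminescence normalised the signal, and concentration-effect curves were fitted to fusion, red and ratio data.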
On the technique in general: In qHTS, concentration-response curves come from the screen itself.

Setting [1] is: measured here: CBR red luminescence, cell number.

What is called AC50 is the midpoint of the concentration-response curve, whichever way the signal moves. In the case of `CN(C)CCCn1cnc2c(c1=N)C(c1ccccc1)c1ccc3ccccc3c1O2` (stereo not drawn), the AC50 under setting [1] is 7.94 µM [falling, partial curve].

Regarding `Cc1cccc(CSCCNC(=O)CN2C(=O)c3ccccc3S2(=O)=O)c1`, under setting [1], the AC50 was 2.82 µM [rising, full curve, poor fit].

As for `CCn1c(CNc2ccc(F)cc2)nnc1SCC(=O)Nc1ccccc1OC`, the AC50 under setting [1] was 23.1 µM [falling, single point].

As for `Cc1cc(C(=O)CSc2nc3ccccc3c(=O)n2C)c(C)n1CC1CCCO1` (stereo not drawn), under setting [1], the AC50 was 6.31 µM [falling, partial curve, poor fit].

For `Cc1cc(NC(=O)COC(=O)c2oc3c(ccc4ccccc43)c2C)no1`, under setting [1], the AC50 is 1.46 µM [rising, full curve].

As to `CN(C)S(=O)(=O)c1ccc(C(=O)NCc2ccco2)cc1`, the AC50 under setting [1] was 1.12 µM [rising, single point].

For `CC1=CN2C(=N)/C(=C/c3ccco3)C(=O)N=C2S1`, the AC50 under setting [1] was 14.6 µM [falling, single point].

As to `CCOC(=O)C1=C(c2ccc(OC)cc2)C(=O)c2ccccc2C1=O`, the AC50 under setting [1] is 5.8 µM [falling, full curve].

On to `CSc1ccccc1NC(=O)Nc1cccc2ccccc12`, for which the AC50 under setting [1] was 0.1 µM [falling, full curve, poor fit].

For the molecule `COc1ccccc1CNc1ncnc2nc[nH]c12`, under setting [1], the AC50 was 10.3 µM [falling, partial curve, poor fit].

In the case of `C#CCOc1ccc(Cl)cc1/C=N/O`, the AC50 under setting [1] was 35.5 µM [rising, single point].

With `CCCCN(C)c1ncnc2c1cnn2-c1cccc(Cl)c1`, under setting [1], the AC50 is 25.1 µM [rising, single point].

Turning to `CCS(=O)(=O)c1ccc(O)c(NC(=O)Nc2cccc3ccccc23)c1`, the AC50 under setting [1] is 14.1 µM [falling, partial curve].

As to `O=C(Nc1cccc(F)c1)N1C2CCC1CC(O)(c1cccnc1)C2` (stereo not drawn), the half-maximal activity concentration (AC50) under setting [1] was 0.891 µM [rising, full curve, poor fit].

In the case of `O=C(NC1(C(F)(F)F)Oc2ccccc2O1)N1CCCC1`, the concentration at half-maximal activity (AC50) under setting [1] was 10 µM [falling, partial curve].

Turning to `Clc1cccc(Cl)c1CSc1nnc([C@@H]2CCCN2)o1`, under setting [1], the half-maximal activity concentration (AC50) is 7.08 µM [rising, partial curve, poor fit].

For the molecule `CCOC(=O)c1cc(-c2ccc3c(c2)OCCO3)nc2c1c(C)nn2CCC#N`, the AC50 under setting [1] was 2.59 µM [rising, full curve, poor fit].

As for `O=C1CN(C(=O)COC(=O)/C=C/c2ccco2)c2ccccc2N1`, under setting [1], the AC50 was 0.398 µM [rising, partial curve, poor fit].

For the molecule `COc1cccc(-c2nn(-c3ccccc3)cc2/C=C\C(=O)c2cccs2)c1`, under setting [1], the AC50 was 2.82 µM [falling, full curve, poor fit].

On to `CCc1ccc2[nH]c3nc(SCC(=O)NNC(=O)c4ccc(C(C)(C)C)cc4)nnc3c2c1`, for which the AC50 under setting [1] is 29.1 µM [rising, single point].

Turning to `COc1ccc(C(=O)O/N=C(\N)c2ccc(OC)c(OC)c2)c(OC)c1`, under setting [1], the AC50 is 0.251 µM [rising, full curve, poor fit].

`O=C(O)COc1ccccc1-c1ccccc1`: the AC50 under setting [1] is 35.5 µM [rising, single point].

With `CCN1C(=NCCc2cccnc2)N[C@@H](c2ccccc2)[C@H](C(=O)OC)[C@H]1C`, under setting [1], the AC50 was 0.794 µM [rising, full curve, poor fit].

`Cc1ccc(/C=C/C(=O)c2c(C)nc3ccccn23)cc1`: the AC50 under setting [1] was 4.47 µM [rising, partial curve, poor fit].

Take `COc1ccc2c(c1)c(=O)c(C(=O)c1ccccc1)cn2Cc1ccc(C)cc1`: the AC50 under setting [1] was 29.1 µM [falling, partial curve, poor fit].

On to `O=C(O)c1ccc(NC2=Nc3cccc4cccc2c34)cc1`, for which the AC50 under setting [1] was 0.112 µM [falling, full curve, poor fit].

Take `COc1ccc(OCC(=O)Nc2ccc3c(c2)n(C)c(=O)n3C)cc1`: the AC50 under setting [1] was 35.5 µM [rising, single point].

`CCc1ccc(CNC(=O)Cc2ccc(NC(=O)C3=C(C)OCCS3)cc2)cc1`: the concentration at half-maximal activity (AC50) is, setting by setting: under setting [1], 2.82 µM [rising, full curve]; (measured here: IkBa-CBG green luminescence) 2.82 µM [falling, full curve].

For `CCCC1O[C@@H]2C[C@H]3[C@@H]4CCC5=CC(=O)C=C[C@]5(C)[C@H]4[C@@H](O)C[C@]3(C)[C@]2(C(=O)CO)O1` (stereo partly drawn), under setting [1], the AC50 is 14.6 µM [rising, partial curve, poor fit].

Turning to `C[C@@H](OC(=O)c1[nH]cnc1C(=O)N1CCc2ccccc2C1)c1ccccc1`, the AC50 under setting [1] is 0.058 µM [rising, full curve, poor fit].

Consider `COc1cccc(OCC(=O)NNC(=O)c2ccc3ccccc3c2O)c1`, for which the AC50 under setting [1] is 35.5 µM [falling, single point].

As to `O=C(NCC1COc2ccccc2O1)c1ccc(Cl)cc1` (stereo not drawn), the AC50 under setting [1] is 7.08 µM [rising, partial curve].

For `NC(=O)c1c(NC(=S)Nc2ccc(F)cc2)sc2c1CCCC2`, the AC50 under setting [1] is 5.62 µM [rising, single point].

For the molecule `CC(=O)Nc1ccc(OCC(O)Cn2ccnc2)cc1` (stereo not drawn), the AC50 under setting [1] is 5.62 µM [falling, partial curve].

In the case of `C/C(=N\NC(=O)c1c(Cl)cnn1C)c1cccnc1`, under setting [1], the AC50 is 10 µM [falling, partial curve, poor fit].

As to `CC1CC(C)CN(C(=S)Nc2ccc(OC(F)F)cc2)C1` (stereo not drawn), the AC50 under setting [1] was 2.91 µM [rising, full curve, poor fit].

Take `Cc1nc2c3ccccc3nc(SCC(=O)N3CC(C)CC(C)C3)n2n1` (stereo not drawn): the AC50 under setting [1] was 6.51 µM [falling, single point].

For the molecule `Cc1cc(C)nc(N/N=C/c2ccccc2Cl)n1`, under setting [1], the concentration at half-maximal activity (AC50) is 14.1 µM [falling, partial curve].

For the molecule `CC1Cc2ccccc2N1C(=O)CN(C)CC(=O)Nc1ccc(F)cc1` (stereo not drawn), the half-maximal activity concentration (AC50) under setting [1] is 20.6 µM [falling, single point].

Take `COc1cc(/C=N/NC(=O)c2cccnc2)cc(Br)c1O`: the AC50 under setting [1] is 12.6 µM [falling, single point].

In the case of `Clc1cccc(-n2ncc3c(NCCCc4ccccc4)ncnc32)c1`, the AC50 under setting [1] is 2.51 µM [falling, partial curve, poor fit].

Consider `CC(=O)c1ccc(NC(=O)CSc2nnc(C3CC3)n2C2CC2)cc1`, for which the AC50 under setting [1] is 4.11 µM [rising, single point].
